Experimental data: US7223777B2, “Compounds for the management of aging-related and diabetic vascular complications, process for their preparation, therapeutic and cosmetic uses thereof” (Torrent Pharmaceuticals Ltd., priority 2001, dated 2007)
Some results were stated once for a whole list of compounds, not compound by compound.

Amino acid sequences for entries named in this document (tags omitted). Residues count along the entry.
UniProt P02769, 25-607: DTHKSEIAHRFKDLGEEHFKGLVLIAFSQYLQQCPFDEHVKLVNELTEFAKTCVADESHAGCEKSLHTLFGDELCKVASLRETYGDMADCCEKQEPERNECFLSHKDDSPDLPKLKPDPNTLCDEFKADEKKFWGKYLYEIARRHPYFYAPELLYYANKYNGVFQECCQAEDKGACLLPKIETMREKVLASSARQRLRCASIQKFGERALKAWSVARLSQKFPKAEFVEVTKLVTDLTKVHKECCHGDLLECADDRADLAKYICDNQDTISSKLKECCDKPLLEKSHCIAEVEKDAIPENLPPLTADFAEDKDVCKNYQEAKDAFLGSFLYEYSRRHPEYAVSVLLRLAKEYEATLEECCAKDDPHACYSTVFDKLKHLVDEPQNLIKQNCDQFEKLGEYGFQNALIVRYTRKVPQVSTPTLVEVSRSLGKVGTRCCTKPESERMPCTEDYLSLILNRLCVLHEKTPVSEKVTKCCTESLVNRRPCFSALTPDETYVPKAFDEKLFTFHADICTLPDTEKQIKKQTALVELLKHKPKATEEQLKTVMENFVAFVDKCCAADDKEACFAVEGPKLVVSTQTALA

Biological target: T1, AGE-BSA (Bos taurus, UniProt P02769)
T1 construct: Bovine serum albumin (fraction V) (BSA); from tissue; host or cells: bovine serum (fraction V); own knowledge: fraction V is the albumin fraction of plasma/serum
Experiment: In-vitro screening for AGE-breaking activity (AGE-BSA incubated with compound; ELISA / gel permeation chromatography)
Format: biochemical, bovine
Settings: summary of Table 2
Method: Fluorescence was used as the criteria to monitor the increased AGE formation.
160 mg/ml of protein, bovine serum albumin, BSA and 1.6M glucose sugar were dissolved in phosphate buffered saline, PBS. Sodium azide was added at 0.02% concentration as a preservative. The solution was filtered asceptically through a […] filter and kept for aging at 37° C. for 16 weeks. After 16 weeks the solution was dialyzed against PBS, aliquoted and stored at −20° C.
To determine the AGE breaking activity, 10 μg/ml of the 16 weeks AGE-BSA was incubated with different concentrations of the test compounds at 37° C. for 24 hours and AGE breaking activity of the test compounds by ELISA was determined.
• 1. Different concentrations of 16 weeks AGE-BSA were coated on a microtiter plate as standard. Each concentration is coated in triplicates. • 2. The test samples were coated on microtiter plate at a concentration of 5 ng. to 20 ng per well in triplicates. • 3. The plate was incubated at 37° C. for one hour. • 4. After incubation the plate was washed with PBST (PBS with 0.05% Tween 20). • 5. Blocking with 5% skimmed milk in PBS at 37° C. for one hour was done. • 6. The plate was washed with PBST. • 7. Primary antibody against AGE-BSA was added and the plate is incubated at 37° C. for one hour. • 8. The plate was washed with PBST. • 9. Secondary antibody anti rabbit HRPO (Horse-Radish Per Oxidase) conjugate was added and the plate is incubated at 37° C. for one hour. • 10. The plate was washed with PBST. • 11. Colour development with OPD (orthophenylenediamine dihydrochloride) and hydrogen peroxide was done. • 12. OD (optical density) at (450 nm reading –620 nm reading) was measured after incubation at 37° C. for 15 minutes with Microplate ELISA Reader.
The breaker activity of the compounds were determined by the following formula:
[formula] OD450-620Control=Absorbance of 20 ng AGE-BSA after incubation at 37° C. for 24 hours without test compound. OD450-620Test=Absorbance of 20 ng AGE-BSA after incubation at 37° C. for 24 hours with required concentration of test compound.
Gel Permeation Chromatography based method was used to determine AGE breaking activities of the compounds.
Separation by Gel Permeation Chromatography (GPC) depends on differences in the size, more precisely the hydrodynamic volume, of the proteins in a sample. […] The pores of a column particle are differentially accessible to smaller particles, depending on their size. This volume of the column is called (V1). The total accessible volume (Vt) is the sum of the volume outside the particles (V0) and the volume accessible inside the particles (V1): Vt=V0+Vi Therefore, in a typical Gel Permeation Chromatography (GPC) run, high molecular weight molecules elute at a lower retention time whereas lower molecular weight molecules are retained for longer time. For the purpose of quantification, the area under the curve for the respective molecule is recorded. The same principle has been applied in the in vitro screening of the molecules of instant invention. Highly cross-linked Advanced Glycosylated Endproducts (AGE) were prepared in vitro by incubating Bovine Serum Albumin (BSA) with glucose for a period of 16 weeks. […] The reduction in the area of AGE-BSA incubated in the presence of AGE breaker as compared to that of control AGE BSA (incubated in absence of AGE breaker) gives an estimate of the AGE breaker activity of the drug. In order to check the non-specific activity of the molecule, a similar experiment was repeated with BSA as well. Methodology:
A known concentration of 16-week AGE-BSA was incubated with and without a predetermined concentration of the drug at 37° C. for 24 hours in clean transparent glass test tubes. The solution without drug served as the control and the solution containing the drug was treated as the test sample.
Gel permeation chromatography was performed on equal volumes of control AGE-BSA preparation and solution of AGE-BSA treated with drug. […]

| Compound | AGE breaking activity (in words) | potency of AGE breaking activity (in words) |
| --- | --- | --- |
| 1-(2-Cyclopropylamino-2-oxoethyl)-3-[(1-cyclohexyl-3-phenylmethyl)pyrazol-5-yl]pyridinium chloride [Compound 23] | very good AGE breaking activity | – |
| 1-(2-Cyclopropylamino-2-oxoethyl)-3-[(3-(2-cyclohexylethyl)pyrazol-5-yl]pyridinium chloride [Compound 21] | very good AGE breaking activity | significantly of high order |
| 1-(2-Thien-2′-yl-2-oxoethyl)-3-[(1-cyclohexyl-3-(3,5-dimethylpyrazol-1-yl)methyl)pyrazol-5-yl]pyridinium chloride [Compound 35] | very good AGE breaking activity | – |
| O=C(C[n+]1cccc(-c2cc(Cc3ccccc3)nn2-c2ccccc2)c1)c1cccs1.[Cl-] [Compound 11, 1-(2-Thien-2′-yl-2-oxoethyl)-3-[(1-phenyl-3-phenylmethyl)pyrazol-5-yl]-pyridinium chloride] | very good AGE breaking activity | significantly of high order |
| Cc1ccc(C(=O)C[n+]2cccc(-c3cc(Cc4ccccc4)n[nH]3)c2)s1.[Cl-] [Compound 12, 1-(2-(5-Methyl-2-Thienyl)-2-oxoethyl)-3-[(3-phenylmethyl)pyrazol-5-yl]pyridinium chloride] | very good AGE breaking activity | significantly of high order |
| Cc1cc(C)n(Cc2cc(-c3ccc[n+](CC(=O)c4cccs4)c3)n(-c3ccccc3)n2)n1.[Cl-] [Compound 13] | very good AGE breaking activity | significantly of high order |
| O=C(C[n+]1cccc(-c2cc(Cc3ccccc3)nn2-c2ccccc2)c1)NC1CC1.[Cl-] [Compound 15, 1-(2-Cyclopropylamino-2-oxoethyl) 3-[(1-phenyl-3-phenylmethyl)pyrazol-5-yl]-pyridinium chloride] | very good AGE breaking activity | significantly of high order |
| Cc1cc(C)n(Cc2cc(-c3ccc[n+](CC(=O)c4ccccc4)c3)[nH]n2)n1.[Cl-] [Compound 17, 1-(2-Phenyl-2-oxoethyl)-3-[(3-(3,5-dimethylpyrazol-1-yl)methyl)pyrazol-5-yl]-pyridinium chloride] | very good AGE breaking activity | – |
| Cc1cc(C)n(Cc2cc(-c3ccc[n+](CC(=O)c4ccc(C)s4)c3)[nH]n2)n1.[Cl-] [Compound 18, 1-(2-(5-Methyl-2-thienyl)-2-oxoethyl)-3-[(3,-(3,5-dimethylpyrazol-1-yl)methyl)pyrazol-5-yl]pyridinium chloride] | very good AGE breaking activity | – |
| O=C(C[n+]1cccc(-c2cc(Cc3ccccc3)nn2-c2ccccc2)c1)c1ccccc1.[Cl-] [Compound 19, 1-(2-Phenyl-2-oxoethyl)-3-[(1-phenyl-3-phenylmethyl)pyrazol-5-yl]pyridinium chloride] | very good AGE breaking activity | significantly of high order |
| O=C(C[n+]1cccc(-c2cc(CCC3CCCCC3)n[nH]2)c1)c1ccccc1.[Cl-] [Compound 22] | very good AGE breaking activity | significantly of high order |
